# Source: PubChem BioAssay AID1487 (National Center for Advancing Translational Sciences (NCATS), 2009)
# The list shows a part of the results. These are further read-outs of the screen, such as a control signal, another cell line or another target. No call is given for them. Most of these compounds were active or inconclusive in the main read-out, so they are no random draw. Potencies come from curve fits of mixed quality, noted in brackets.
# Assay: qHTS Assay for Modulators of Lamin A Splicing
# Settings: HeLa LMNA splicing GFP/RFP minigene ratio, 48 h
# Outline: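 Read-out is the ratio of GFP to DsRed2 object intensity, acquired by 488 nm laser-scanning cytometry on HeLa lamin A-EGFP minigene reporter cells. Compound incubation 48 hrs at 37 °C in Opti-MEM with 2% FBS; DMSO 0.5% final.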
# [1] = measured here: RFP viability control channel
# [2] = measured here: GFP splicing reporter channel
Compound,AC50 [1],AC50 [2]
CS(=O)(=O)N(CC(=O)Nc1ccc(CC#N)cc1)c1ccc(C23CC4CC(CC(C4)C2)C3)cc1,"35.5 µM [rising, single point]",
CCN1/C(=C/c2ccc3cc(C)cc(C)c3[n+]2CC)Sc2cc(C)ccc21,"2.82 µM [rising, partial curve]",
COc1ccc(OC)c(C(=O)N2CCC(C(=O)c3ccc(F)cc3)CC2)c1,"20 µM [rising, single point]",
CCC1CN(S(=O)(=O)c2ccc3c(c2)NC(=O)CC(=O)N3)c2cc(Cl)ccc2O1 (stereo not drawn),,"44.7 µM [rising, partial curve, poor fit]"
CCc1n(CC(O)COCC2CC=CCC2)c2ccccc2[n+]1C (stereo not drawn),"12.6 µM [falling, partial curve]","17.8 µM [falling, single point]"
Cc1ccc(N2C(=O)CS(=O)(=O)CC2=O)cc1,"4.47 µM [rising, full curve, poor fit]",
CCC(=O)O[C@@]1(C(=O)CCl)[C@@H](C)C[C@@H]2[C@H]3CCC4=CC(=O)C=C[C@@]4(C)[C@]3(F)[C@@H](O)C[C@@]21C,"14.1 µM [falling, partial curve, poor fit]","7.94 µM [falling, single point]"
CN(Cc1c(F)cccc1Cl)C(=O)c1cc2ccccc2o1,,"4.47 µM [falling, full curve, poor fit]"
COc1ccccc1Cc1nc2ccccc2nc1SCC(=O)Nc1ccccc1C(F)(F)F,,"0.708 µM [rising, full curve, poor fit]"
CC(=O)c1ccc(COC(=O)c2ccccc2NC(=O)C(C)C)cc1,"3.16 µM [falling, full curve]","3.55 µM [falling, full curve, poor fit]"
COCCn1nnnc1C(c1cccs1)N1CCN(c2ccccc2)CC1 (stereo not drawn),,"12.6 µM [rising, single point]"
CCNC(=S)N1CCN(S(=O)(=O)c2ccccc2C(F)(F)F)CC1,,"0.02 µM [falling, full curve, poor fit]"
CC(=O)Nc1ccc(S(=O)(=O)N2CCC(n3cnc4cc(F)ccc43)CC2)cc1,"22.4 µM [rising, single point]","15.8 µM [rising, partial curve, poor fit]"
O=C(NCCCN1CCOCC1)c1ccc(Cl)c(S(=O)(=O)N2CCCCCC2)c1,"35.5 µM [rising, single point]",
[N-]=[N+]=Nc1ccc(C(=O)CSC[C@H](NC(=O)CC[C@H](N)C(=O)O)C(=O)NCC(=O)O)cc1,"2.82 µM [rising, partial curve]","5.01 µM [rising, partial curve]"
COC(=O)c1ccc(CSc2ncn[nH]2)o1,"12.6 µM [falling, single point]",
CC(=O)NC(Cc1ccccc1)C(=O)OCC(=O)c1ccc(Br)cc1 (stereo not drawn),"0.0891 µM [rising, full curve, poor fit]",
CC(C)c1noc2ncc(C(=O)c3cc(Cl)cc(Cl)c3O)cc12,"14.1 µM [rising, single point]",
COc1ccc(C2Cc3ccccc3C(=O)O2)cc1 (stereo not drawn),,"35.5 µM [rising, single point]"
CCc1noc(C)c1C(=O)N1CCCC(C(=O)c2ccc(OC)c(F)c2)C1 (stereo not drawn),"7.08 µM [falling, full curve, poor fit]","8.91 µM [falling, partial curve, poor fit]"
O=C(NC1CCCCC1)C(c1cccnc1)N(C(=O)CCl)c1ccccc1Cl (stereo not drawn),"11.2 µM [rising, partial curve]",
Cc1nc2cc(-c3cccc(F)c3)nn2c(C)c1CCC(=O)NC(C)c1ccc2c(c1)OCCO2 (stereo not drawn),"11.2 µM [rising, partial curve, poor fit]","5.62 µM [rising, full curve, poor fit]"
CCC(C)COC(=O)C(C#N)c1nc2ccccc2nc1N1CCCCC1 (stereo not drawn),"17.8 µM [rising, partial curve]",
CC1CCc2c(C(=O)NCc3cccnc3)csc2C1 (stereo not drawn),"11.2 µM [rising, partial curve]",
C=CCc1cccc(CNc2nc3ccccc3n2CC)c1O,,"35.5 µM [falling, single point]"
COc1cc(OC)cc(C(=O)N(Cc2nc(-c3cccc(C)c3)no2)C(C)C)c1,"35.5 µM [rising, single point]",
COc1cc(CC(=O)Nc2nccs2)cc(OC)c1OC,"17.8 µM [rising, single point]",

Compound,AC50 [1],AC50 [2]
O=C(c1ccc2c(c1)CCCC2)N1CCN(c2nc3ccc(F)cc3s2)CC1,"0.178 µM [rising, full curve, poor fit]",
ClCc1cc2ccccc2nc1Cl,,"0.0794 µM [falling, full curve]"
Cc1ccc(N(CC(=O)Nc2ccc3c(c2)OCCO3)S(=O)(=O)c2c(C)noc2C)cc1,"14.1 µM [rising, single point]",
CCN(CC)C(=S)SCC(=O)Nc1nc(=O)c2ccccc2s1,"0.158 µM [falling, partial curve, poor fit]",
CNC1=C(N(C(C)=O)c2ccc(Br)cc2)C(=O)c2ccccc2C1=O,"10 µM [falling, partial curve, poor fit]","6.31 µM [falling, full curve, poor fit]"
COc1ccc(S(=O)(=O)N2CCN(CCO)CC2)cc1-c1nnc2c3ccccc3c(C)nn12,"35.5 µM [rising, single point]","14.1 µM [rising, single point]"
CC1(C)C=C2[C@H]3CC[C@@H]4[C@@]5(C)CCC(=O)C(C)(C)[C@@H]5CC[C@@]4(C)[C@]3(C)CC[C@@]2(C(=O)O)CC1,"0.0112 µM [falling, full curve, poor fit]",
O=C(CSC1=N/C(=C/c2ccc(Cl)c(Cl)c2)C(=O)N1c1ccccc1F)NC1CC1,"20 µM [rising, single point]","10 µM [rising, single point]"
COc1ccc(/C=N/NC(=O)c2[nH]c3ccc(Br)cc3c2-c2ccccc2)cc1,"0.794 µM [rising, full curve]","0.708 µM [rising, full curve]"
COc1ccc(CC(=O)Nc2cc(-c3nc4cccnc4s3)ccc2C)cc1,,"14.1 µM [rising, single point]"
COc1cccc(-c2nc(NC(C)(C)C)c3ccccc3n2)c1O,"20 µM [rising, single point]","31.6 µM [rising, single point]"
O=S(=O)(Nc1cc(C(F)(F)F)ccc1N1CCOCC1)c1ccccc1,,"0.126 µM [rising, full curve, poor fit]"
Cc1cccc(NC(=S)N/N=C/c2ccc([N+](=O)[O-])s2)c1,"35.5 µM [falling, single point]",
CSc1nc2ccc(Nc3nc(N4CCOCC4)nc(N4CCOCC4)n3)cc2s1,"22.4 µM [rising, single point]","35.5 µM [rising, single point]"
C/C(=N\NC(=S)Nc1cccc(C)c1)c1cc2ccccc2o1,"2.24 µM [rising, full curve, poor fit]",
Cc1ccc(OCc2nc(C#N)c(NCc3ccc4c(c3)OCO4)o2)cc1,,"35.5 µM [rising, single point]"
S=C(NCc1ccc(Cl)c(Cl)c1)Nc1ccc2c(c1)OCO2,"35.5 µM [rising, single point]",
O=[N+]([O-])c1cc(CN2CCN(c3cccc(C(F)(F)F)c3)CC2)c2cccnc2c1O,,"3.55 µM [rising, partial curve]"
Cc1ccc(C)n1-c1ccc(C(=O)NCc2ccncc2)cc1,"22.4 µM [rising, partial curve, poor fit]","0.126 µM [rising, full curve, poor fit]"
O=C(Cc1ccc2c(c1)OCCO2)c1c(O)cc(O)cc1O,"25.1 µM [rising, single point]","25.1 µM [rising, single point]"
O=C(NCC1CCN(Cc2ccccc2Cl)CC1)c1cc2ccc3cccnc3c2[nH]1,"17.8 µM [rising, partial curve]","28.2 µM [rising, partial curve]"
COc1ccccc1CNC(=O)CCc1c(C)nn(-c2ccc(N3CCCC3)nn2)c1C,"0.251 µM [falling, full curve]",
Cc1cc(=O)n(Cc2ccccc2Cl)c2c1c(C)nn2-c1ccccc1,"20 µM [rising, partial curve, poor fit]","10 µM [rising, partial curve, poor fit]"
CCC1CCCCN1C(=O)c1cccc(S(=O)(=O)Nc2cc(C(F)(F)F)ccc2Cl)c1 (stereo not drawn),"25.1 µM [rising, single point]","14.1 µM [rising, single point]"
Cc1ccc(CSc2nc3ccsc3c(=O)n2CCC(C)C)cc1,"25.1 µM [rising, single point]",
Nn1c(SCC(=O)Nc2ccccc2F)nnc1-c1cccnc1,"0.01 µM [rising, full curve, poor fit]",
CC(C)CCNC(=O)NC(=O)COC(=O)/C=C/c1cccc([N+](=O)[O-])c1,"0.01 µM [falling, full curve, poor fit]","0.0141 µM [falling, full curve]"

# Arranged by molar mass (low to high): some entries from above.
Compound,AC50 [1],AC50 [2]
CC1CCc2c(C(=O)NCc3cccnc3)csc2C1 (stereo not drawn),"11.2 µM [rising, partial curve]",
C/C(=N\NC(=S)Nc1cccc(C)c1)c1cc2ccccc2o1,"2.24 µM [rising, full curve, poor fit]",
O=C(NCCCN1CCOCC1)c1ccc(Cl)c(S(=O)(=O)N2CCCCCC2)c1,"35.5 µM [rising, single point]",
